# Source: PubChem BioAssay (NCATS)
# The shares of active, inactive and inconclusive entries below differ from those in the screen. Potencies beside an inconclusive call are fits to weak or partial responses and may not hold up. Active and inactive are the calls of the source. Calls come from the whole dose curve; as a rule, active = well fitted activation curve with a large enough effect in the signal ratio; inconclusive = small, poorly fitted or top-dose-only effect, or effect the other way, or a change in a side signal; inactive = flat fitted curve, though single readings scatter; the % refers to the signal ratio.
# Experiment: qHTS assay to identify small molecules that stimulate interleukin-8 (IL-8) secretion (AID 651758); for activation: 0% is about no effect
# Conditions: HTRF ratio (665/615); activation: at 92.2 µM (top of the series)
# Outline: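 Secreted IL-8 measured homogeneously by TR-FRET (two labelled anti-IL-8 antibodies, 1-3 h at room temperature) after a 16 h, 37 C compound treatment of THP-1 cells at 2000 cells/well.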
# Potency is the fitted concentration of half-maximal effect.
Compound,activation,Potency
CCC1(c2ccccc2)C(=O)NCNC1=O,inconclusive: 2.15%,–
CC(=O)Nc1ccc(O)cc1,inconclusive: 3.23%,–
c1ccc2occc2c1,inconclusive: -1.12%,–
Cc1ccnc2c1NC(=O)c1cccnc1N2C1CC1,inconclusive: -24.9%,–
O=c1c(-c2ccc(O)cc2)coc2cc(O)cc(O)c12,inactive: 14.4%,–
COc1ccc(O)cc1,inconclusive: 22.7%,–
O=C(c1ccccc1)c1ccccc1,inconclusive: 27.4%,–
c1ccc2sc(SSc3nc4ccccc4s3)nc2c1,inconclusive: -6.33%,–
NC(=O)c1ccccc1,inconclusive: 5.07%,–
CC1(C)S[C@@H]2[C@H](NC(=O)[C@H](N)c3ccccc3)C(=O)N2[C@H]1C(=O)O,inconclusive: -0.879%,–
CCCOC(=O)c1ccc(O)cc1,inconclusive: -8.97%,–
NS(=O)(=O)c1cc(C(=O)O)c(NCc2ccco2)cc1Cl,inconclusive: 1.62%,–
NCCO,inconclusive: -27.2%,–
COC(=O)C1=C(C)NC(C)=C(C(=O)OC)C1c1ccccc1[N+](=O)[O-],inactive: 5.61%,–
CC(=O)Oc1ccccc1C(=O)O,inconclusive: -1.24%,"inconclusive: 75 µM [rising, single point]"
C#C[C@]1(O)CC[C@H]2[C@@H]3CCc4cc(O)ccc4[C@H]3CC[C@@]21C,–,active: 75 µM

# Record cards (already shown). Order of values: activation	Potency
# NS(=O)(=O)c1cc(C(=O)O)c(NCc2ccco2)cc1Cl reads inconclusive: 1.62%	–
# CC(=O)Nc1ccc(O)cc1 reads inconclusive: 3.23%	–
